{"source": "paper PMC11589570", "about": "“Critical assessment of LC3/GABARAP ligands used for degrader development and ligandability of LC3/GABARAP binding pockets” (Nature Communications, 2024)", "tested_on": "U2OS cells", "test": "Cell growth assay (IncuCyte confluence over 72 h)", "format": "cell-based", "set-up": "key: % of well area covered by cells (confluence)", "procedure,_shortened": "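U2OS cells were grown in DMEM with 10% FBS for 24 h before treatment. Confluence was then tracked by IncuCyte phase imaging over 72 h and expressed as % of well area covered by cells. Each point is the average of three wells.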", "note": "Values joined by “and” are separate entries in the source; they are usually repeats but may differ in a detail not shown here. Identical values can stand only once. The source gives many values for each of these; only a part stands here.", "data": [{"smiles": "O=C1CC(c2ccc(Cl)c(Cl)c2)CC(=O)C1=CNCCN1CCNCC1", "note": "(centres unmarked) [Cov-3]", "values": [{"measurement": "U2OS cell growth", "setting": "100 nM, time 12 h", "value": "34.424 and 37.4092 and 25.6598"}, {"measurement": "U2OS cell growth", "setting": "100 nM, time 14 h", "value": "39.7254 and 48.0548 and 30.7648"}, {"measurement": "U2OS cell growth", "setting": "100 nM, time 16 h", "value": "27.4065 and 36.5227 and 21.1678"}, {"measurement": "U2OS cell growth", "setting": "100 nM, time 18 h", "value": "46.5662 and 48.3463 and 36.8879"}, {"measurement": "U2OS cell growth", "setting": "100 nM, time 20 h", "value": "38.2061 and 54.6173 and 27.8021"}, {"measurement": "U2OS cell growth", "setting": "100 nM, time 22 h", "value": "36.2137 and 40.2671 and 28.9743"}, {"measurement": "U2OS cell growth", "setting": "100 nM, time 24 h", "value": "60.5849 and 66.4174 and 51.6124"}, {"measurement": "U2OS cell growth", "setting": "100 nM, time 26 h", "value": "53.1389 and 64.6167 and 38.0637"}, {"measurement": "U2OS cell growth", "setting": "100 nM, time 28 h", "value": "56.5303 and 56.4263 and 47.0077"}, {"measurement": "U2OS cell growth", "setting": "100 nM, time 34 h", "value": "55.867 and 74.0965 and 56.0187"}, {"measurement": "U2OS cell growth", "setting": "100 nM, time 36 h", "value": "49.8922 and 53.7039 and 29.886"}, {"measurement": "U2OS cell growth", "setting": "100 nM, time 38 h", "value": "46.1984 and 66.635 and 38.3091"}, {"measurement": "U2OS cell growth", "setting": "100 nM, time 40 h", "value": "79.3947 and 69.1001 and 57.2821"}, {"measurement": "U2OS cell growth", "setting": "100 nM, time 42 h", "value": "69.8263 and 71.4482 and 59.5838"}, {"measurement": "U2OS cell growth", "setting": "100 nM, time 44 h", "value": "66.2351 and 65.7841 and 44.3898"}, {"measurement": "U2OS cell growth", "setting": "100 nM, time 46 h", "value": "60.403 and 66.8668 and 47.0506"}, {"measurement": "U2OS cell growth", "setting": "100 nM, time 48 h", "value": "57.8751 and 59.0533 and 41.8282"}, {"measurement": "U2OS cell growth", "setting": "100 nM, time 50 h", "value": "70.6825 and 84.7812 and 69.0292"}, {"measurement": "U2OS cell growth", "setting": "100 nM, time 52 h", "value": "80.0495 and 64.0231 and 65.9363"}, {"measurement": "U2OS cell growth", "setting": "100 nM, time 54 h", "value": "92.4508 and 93.0284 and 87.8023"}, {"measurement": "U2OS cell growth", "setting": "100 nM, time 56 h", "value": "81.5207 and 86.4012 and 74.4337"}, {"measurement": "U2OS cell growth", "setting": "100 nM, time 60 h", "value": "96.6365 and 93.7914 and 91.565"}, {"measurement": "U2OS cell growth", "setting": "100 nM, time 62 h", "value": "87.7923 and 95.364 and 78.9864"}, {"measurement": "U2OS cell growth", "setting": "100 nM, time 64 h", "value": "96.8152 and 92.9439 and 95.1795"}, {"measurement": "U2OS cell growth", "setting": "100 nM, time 66 h", "value": "93.4316 and 93.3969 and 90.7727"}, {"measurement": "U2OS cell growth", "setting": "100 nM, time 68 h", "value": "94.8482 and 94.8901 and 91.6376"}, {"measurement": "U2OS cell growth", "setting": "100 nM, time 70 h", "value": "97.6777 and 93.8456 and 96.2142"}, {"measurement": "U2OS cell growth", "setting": "100 nM, time 72 h", "value": "93.1118 and 90.7932 and 83.3745"}, {"measurement": "U2OS cell growth", "setting": "500 nM, time 10 h", "value": "30.7488 and 26.7288 and 32.9809"}, {"measurement": "U2OS cell growth", "setting": "500 nM, time 12 h", "value": "27.1987 and 25.3543 and 36.9137"}, {"measurement": "U2OS cell growth", "setting": "500 nM, time 14 h", "value": "29.7432 and 23.6222 and 43.5814"}, {"measurement": "U2OS cell growth", "setting": "500 nM, time 16 h", "value": "33.8319 and 26.4619 and 43.3524"}, {"measurement": "U2OS cell growth", "setting": "500 nM, time 18 h", "value": "33.2237 and 30.9975 and 37.0252"}, {"measurement": "U2OS cell growth", "setting": "500 nM, time 20 h", "value": "43.6279 and 27.7465 and 47.6343"}, {"measurement": "U2OS cell growth", "setting": "500 nM, time 22 h", "value": "31.2979 and 25.5071 and 36.6812"}, {"measurement": "U2OS cell growth", "setting": "500 nM, time 24 h", "value": "49.5858 and 41.3421 and 62.8344"}, {"measurement": "U2OS cell growth", "setting": "500 nM, time 26 h", "value": "38.555 and 37.7949 and 52.3935"}, {"measurement": "U2OS cell growth", "setting": "500 nM, time 28 h", "value": "36.6992 and 31.5583 and 59.1197"}, {"measurement": "U2OS cell growth", "setting": "500 nM, time 30 h", "value": "44.2578 and 42.7079 and 56.1773"}, {"measurement": "U2OS cell growth", "setting": "500 nM, time 32 h", "value": "58.7176 and 33.4329 and 60.191"}, {"measurement": "U2OS cell growth", "setting": "500 nM, time 34 h", "value": "44.0154 and 40.4776 and 76.2023"}, {"measurement": "U2OS cell growth", "setting": "500 nM, time 36 h", "value": "38.8402 and 45.1554 and 48.1058"}, {"measurement": "U2OS cell growth", "setting": "500 nM, time 38 h", "value": "50.843 and 44.4932 and 68.1828"}, {"measurement": "U2OS cell growth", "setting": "500 nM, time 40 h", "value": "41.6587 and 38.6094 and 73.0109"}, {"measurement": "U2OS cell growth", "setting": "500 nM, time 42 h", "value": "59.8084 and 50.8314 and 73.0945"}, {"measurement": "U2OS cell growth", "setting": "500 nM, time 44 h", "value": "53.3097 and 49.8387 and 66.8176"}, {"measurement": "U2OS cell growth", "setting": "500 nM, time 46 h", "value": "60.6524 and 59.007 and 78.0819"}, {"measurement": "U2OS cell growth", "setting": "500 nM, time 48 h", "value": "66.2399 and 45.3206 and 65.7511"}, {"measurement": "U2OS cell growth", "setting": "500 nM, time 50 h", "value": "70.3843 and 58.9939 and 75.8705"}, {"measurement": "U2OS cell growth", "setting": "500 nM, time 52 h", "value": "68.9429 and 80.966 and 82.0533"}, {"measurement": "U2OS cell growth", "setting": "500 nM, time 54 h", "value": "84.6961 and 79.5127 and 93.2111"}, {"measurement": "U2OS cell growth", "setting": "500 nM, time 56 h", "value": "77.5325 and 73.483 and 88.3047"}, {"measurement": "U2OS cell growth", "setting": "500 nM, time 58 h", "value": "78.3028 and 76.3386 and 90.1819"}, {"measurement": "U2OS cell growth", "setting": "500 nM, time 60 h", "value": "79.2505 and 69.7603 and 86.8917"}, {"measurement": "U2OS cell growth", "setting": "500 nM, time 62 h", "value": "91.0789 and 81.3931 and 89.7806"}, {"measurement": "U2OS cell growth", "setting": "500 nM, time 64 h", "value": "85.8262 and 88.6536 and 92.2168"}, {"measurement": "U2OS cell growth", "setting": "500 nM, time 66 h", "value": "88.4152 and 76.5234 and 94.5393"}, {"measurement": "U2OS cell growth", "setting": "500 nM, time 68 h", "value": "84.8472 and 75.1894 and 95.1836"}, {"measurement": "U2OS cell growth", "setting": "500 nM, time 70 h", "value": "85.5972 and 86.9023 and 90.3612"}, {"measurement": "U2OS cell growth", "setting": "500 nM, time 72 h", "value": "74.2556 and 89.7048 and 79.959"}, {"measurement": "U2OS cell growth", "setting": "1 uM, time 10 h", "value": "39.1596 and 43.7988"}, {"measurement": "U2OS cell growth", "setting": "1 uM, time 12 h", "value": "24.6816 and 36.4773 and 38.8614"}, {"measurement": "U2OS cell growth", "setting": "1 uM, time 14 h", "value": "25.3949 and 38.1109 and 32.4977"}, {"measurement": "U2OS cell growth", "setting": "1 uM, time 16 h", "value": "25.9805 and 38.8453 and 47.3734"}, {"measurement": "U2OS cell growth", "setting": "1 uM, time 18 h", "value": "26.9731 and 48.1799 and 49.078"}, {"measurement": "U2OS cell growth", "setting": "1 uM, time 20 h", "value": "26.1426 and 44.3671 and 44.5709"}, {"measurement": "U2OS cell growth", "setting": "1 uM, time 22 h", "value": "31.4336 and 39.0696 and 38.1423"}, {"measurement": "U2OS cell growth", "setting": "1 uM, time 24 h", "value": "41.8181 and 69.4259 and 63.8587"}, {"measurement": "U2OS cell growth", "setting": "1 uM, time 26 h", "value": "41.9862 and 50.7595 and 47.8111"}, {"measurement": "U2OS cell growth", "setting": "1 uM, time 28 h", "value": "34.3638 and 49.9695 and 46.2544"}, {"measurement": "U2OS cell growth", "setting": "1 uM, time 30 h", "value": "34.2697 and 54.7126 and 62.3183"}, {"measurement": "U2OS cell growth", "setting": "1 uM, time 32 h", "value": "39.6923 and 59.7417 and 52.8725"}, {"measurement": "U2OS cell growth", "setting": "1 uM, time 34 h", "value": "41.509 and 56.6283 and 54.8741"}, {"measurement": "U2OS cell growth", "setting": "1 uM, time 36 h", "value": "40.9164 and 47.567 and 48.2567"}, {"measurement": "U2OS cell growth", "setting": "1 uM, time 38 h", "value": "55.0369 and 82.8139 and 77.0405"}, {"measurement": "U2OS cell growth", "setting": "1 uM, time 40 h", "value": "43.1598 and 60.6915 and 58.0138"}, {"measurement": "U2OS cell growth", "setting": "1 uM, time 42 h", "value": "50.9671 and 68.599 and 66.5795"}, {"measurement": "U2OS cell growth", "setting": "1 uM, time 44 h", "value": "54.1845 and 75.4274 and 80.9038"}, {"measurement": "U2OS cell growth", "setting": "1 uM, time 46 h", "value": "60.0255 and 73.3491 and 68.7558"}, {"measurement": "U2OS cell growth", "setting": "1 uM, time 48 h", "value": "48.054 and 78.272 and 74.3277"}, {"measurement": "U2OS cell growth", "setting": "1 uM, time 50 h", "value": "63.2703 and 77.8356 and 81.954"}, {"measurement": "U2OS cell growth", "setting": "1 uM, time 52 h", "value": "72.6909 and 87.6865 and 81.0244"}, {"measurement": "U2OS cell growth", "setting": "1 uM, time 54 h", "value": "76.3148 and 91.161 and 90.022"}, {"measurement": "U2OS cell growth", "setting": "1 uM, time 56 h", "value": "72.735 and 86.0153 and 85.6529"}, {"measurement": "U2OS cell growth", "setting": "1 uM, time 58 h", "value": "79.5683 and 93.4176 and 94.2571"}, {"measurement": "U2OS cell growth", "setting": "1 uM, time 60 h", "value": "75.1278 and 88.9941 and 86.7455"}, {"measurement": "U2OS cell growth", "setting": "1 uM, time 62 h", "value": "79.1998 and 91.8091 and 89.3326"}, {"measurement": "U2OS cell growth", "setting": "1 uM, time 64 h", "value": "86.2139 and 94.6409 and 96.522"}, {"measurement": "U2OS cell growth", "setting": "1 uM, time 66 h", "value": "87.4215 and 98.7146 and 91.0504"}, {"measurement": "U2OS cell growth", "setting": "1 uM, time 68 h", "value": "86.1718 and 95.424 and 91.171"}, {"measurement": "U2OS cell growth", "setting": "1 uM, time 70 h", "value": "75.2965 and 94.4259 and 94.0036"}, {"measurement": "U2OS cell growth", "setting": "1 uM, time 72 h", "value": "88.7393 and 99.2054 and 98.6383"}]}]}
